Binding data for one substance are collected here from doi:10.1101/472241.

Sequences of proteins named here, by UniProt entry; tags and fusion partners are left off. A change or cut given only in a name is not applied to a line headed by its entry.
UniProt O55057: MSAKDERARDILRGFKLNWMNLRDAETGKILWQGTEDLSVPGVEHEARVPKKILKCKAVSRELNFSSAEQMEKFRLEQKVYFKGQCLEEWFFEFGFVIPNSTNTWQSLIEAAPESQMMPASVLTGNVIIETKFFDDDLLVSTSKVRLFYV
UniProt Q9D0J4: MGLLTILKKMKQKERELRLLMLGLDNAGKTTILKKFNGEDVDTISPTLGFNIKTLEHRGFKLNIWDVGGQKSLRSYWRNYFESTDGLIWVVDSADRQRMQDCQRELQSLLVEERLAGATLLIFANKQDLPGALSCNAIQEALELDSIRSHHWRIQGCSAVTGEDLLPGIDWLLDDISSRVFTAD

These are yes or no findings as the source states them, for the method shown. In cells and extracts the contact can be indirect. Some entries that bind do so weakly or less than the wild type.

The test concerns the target PDEδ (delta subunit of phosphodiesterase-6), endogenous (mouse (endogenous in TSC2+/+ MEFs)) (UniProt O55057). The test is described as follows: proximity ligation.

In the case of “ADP-ribosylation factor like 2 (Arl2), endogenous (from UniProt Q9D0J4 1-184)”, the binding result is reported as “binds”.
